Data on 2 molecules can be found in publication PMC9387936.

Protein sequences, listed by entry. Tags and fused reporters are not part of them.
UniProt P46100: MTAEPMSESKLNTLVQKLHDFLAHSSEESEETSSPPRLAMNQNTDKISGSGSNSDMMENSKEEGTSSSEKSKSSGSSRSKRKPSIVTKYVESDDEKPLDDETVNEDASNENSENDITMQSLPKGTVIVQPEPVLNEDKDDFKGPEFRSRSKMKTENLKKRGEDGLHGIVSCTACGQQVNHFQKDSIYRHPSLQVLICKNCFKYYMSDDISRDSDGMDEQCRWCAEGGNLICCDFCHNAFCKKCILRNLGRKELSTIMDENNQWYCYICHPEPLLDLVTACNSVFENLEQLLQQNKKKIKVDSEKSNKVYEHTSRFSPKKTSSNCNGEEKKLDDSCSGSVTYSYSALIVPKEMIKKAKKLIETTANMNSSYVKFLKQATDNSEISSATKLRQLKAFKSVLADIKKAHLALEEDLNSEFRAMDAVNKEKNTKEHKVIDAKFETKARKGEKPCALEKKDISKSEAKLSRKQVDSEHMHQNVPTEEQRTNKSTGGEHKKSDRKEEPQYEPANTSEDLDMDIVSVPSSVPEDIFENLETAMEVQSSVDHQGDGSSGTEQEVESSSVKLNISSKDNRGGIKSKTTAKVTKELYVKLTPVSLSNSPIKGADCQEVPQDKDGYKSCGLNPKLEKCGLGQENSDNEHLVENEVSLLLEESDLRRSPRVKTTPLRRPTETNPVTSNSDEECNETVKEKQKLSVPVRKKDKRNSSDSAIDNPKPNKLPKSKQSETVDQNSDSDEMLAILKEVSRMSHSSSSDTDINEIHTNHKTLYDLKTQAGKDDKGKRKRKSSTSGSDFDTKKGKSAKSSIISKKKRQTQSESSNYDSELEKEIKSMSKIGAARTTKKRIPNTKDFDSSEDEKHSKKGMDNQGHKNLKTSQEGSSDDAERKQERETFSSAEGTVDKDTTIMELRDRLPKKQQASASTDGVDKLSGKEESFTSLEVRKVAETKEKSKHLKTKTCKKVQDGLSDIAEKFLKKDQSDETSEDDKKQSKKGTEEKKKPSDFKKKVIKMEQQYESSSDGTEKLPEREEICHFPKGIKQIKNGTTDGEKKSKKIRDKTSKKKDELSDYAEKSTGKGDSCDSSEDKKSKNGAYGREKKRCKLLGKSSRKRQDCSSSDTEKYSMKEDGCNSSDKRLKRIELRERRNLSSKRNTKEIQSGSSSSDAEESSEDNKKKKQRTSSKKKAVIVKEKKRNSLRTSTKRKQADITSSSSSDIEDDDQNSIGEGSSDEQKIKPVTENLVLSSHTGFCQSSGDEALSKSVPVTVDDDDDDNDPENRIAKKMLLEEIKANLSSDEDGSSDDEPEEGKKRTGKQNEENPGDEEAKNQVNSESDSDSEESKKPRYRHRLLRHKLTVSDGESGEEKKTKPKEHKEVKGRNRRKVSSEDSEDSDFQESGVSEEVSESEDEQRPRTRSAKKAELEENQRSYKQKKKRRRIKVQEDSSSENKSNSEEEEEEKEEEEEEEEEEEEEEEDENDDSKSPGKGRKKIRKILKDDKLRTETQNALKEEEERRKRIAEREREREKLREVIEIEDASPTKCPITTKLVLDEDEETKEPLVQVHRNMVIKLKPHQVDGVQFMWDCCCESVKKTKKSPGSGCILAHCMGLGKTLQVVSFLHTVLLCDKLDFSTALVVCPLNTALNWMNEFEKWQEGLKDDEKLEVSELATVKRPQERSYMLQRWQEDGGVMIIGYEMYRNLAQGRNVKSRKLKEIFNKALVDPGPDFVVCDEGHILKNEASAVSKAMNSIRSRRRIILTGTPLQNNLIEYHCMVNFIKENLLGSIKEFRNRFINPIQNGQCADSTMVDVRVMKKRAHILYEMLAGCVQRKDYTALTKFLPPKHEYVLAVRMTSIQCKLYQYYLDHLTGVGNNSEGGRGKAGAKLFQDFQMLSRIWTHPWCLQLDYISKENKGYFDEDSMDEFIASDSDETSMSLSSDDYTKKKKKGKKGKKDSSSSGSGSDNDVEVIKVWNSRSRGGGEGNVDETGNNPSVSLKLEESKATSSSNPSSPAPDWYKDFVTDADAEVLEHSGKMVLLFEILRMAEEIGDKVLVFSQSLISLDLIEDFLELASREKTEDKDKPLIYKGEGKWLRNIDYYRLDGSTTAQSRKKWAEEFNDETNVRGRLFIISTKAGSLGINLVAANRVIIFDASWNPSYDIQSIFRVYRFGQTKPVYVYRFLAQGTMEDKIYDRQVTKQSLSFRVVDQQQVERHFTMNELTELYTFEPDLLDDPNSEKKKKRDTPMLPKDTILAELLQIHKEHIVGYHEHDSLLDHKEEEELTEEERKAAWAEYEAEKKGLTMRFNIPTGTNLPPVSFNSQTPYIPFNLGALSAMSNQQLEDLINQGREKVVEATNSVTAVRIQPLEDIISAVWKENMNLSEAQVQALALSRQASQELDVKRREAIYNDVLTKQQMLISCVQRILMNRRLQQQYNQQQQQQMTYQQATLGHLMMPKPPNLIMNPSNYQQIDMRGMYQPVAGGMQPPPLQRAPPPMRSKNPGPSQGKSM

No constants are given. Whether binding was seen depends on the method and setting. In cells and extracts the contact can be indirect. Some entries that bind do so weakly or less than the wild type. Where a sequence is shown, tags or fusion partners need not be part of it.

This assay has as its target alpha thalassemia/mental retardation syndrome X-linked (ATRX) (human (endogenous in HEK293T)) (UniProt P46100). Put plainly: co-IP; HEK293T cells, stimulated with 0.5 ug/ml poly(I:C) HMW for 24 h, left unstimulated, or transfected with GFP-V5-IRF3; lysed in CoIP buffer (50 mM Tris-HCl pH 8.0, 150 mM NaCl, 5 mM EDTA, 0.5% NP-40); endogenous ATRX precipitated with anti-ATRX (D1N2E) on protein A-Sepharose or protein G-Dynabeads, 1.5 h at 4 C; IgG isotype control as negative control; Western blot. A general note: A western blot detects proteins with antibodies after separation by electrophoresis.

B1: interferon regulatory factor 3 (IRF3), endogenous (protein, UniProt Q14653 1-427)
chain: MGTPKPRILPWLVSQLDLGQLEGVAWVNKSRTRFRIPWKHGLRQDAQQEDFGIFQAWAEATGAYVPGRDKPDLPTWKRNFRSALNRKEGLRLAEDRSKDPHDPHKIYEFVNSGVGDFSQPDTSPDTNGGGSTSDTQEDILDELLGNMVLAPLPDPGPPSLAVAPEPCPQPLRSPSLDNPTPFPNLGPSENPLKRLLVPGEEWEFEVTAFYRGRQVFQQTISCPEGLRLVGSEVGDRTLPGWPVTLPDPGMSLTDRGVMSYVRHVLSCLGGGLALWRAGQWLWAQRLGHCHTYWAVSEELLPNSGHGPDGEVPKDKEGGVFDLGPFIVDLITFTEGSGRSPRYALWFCVGESWPQDQPWTKRLVMVKVVPTCLRALVEMARVGGASSLENTVDLHISNSHPLSLTSDQYKAYLQDLVEGMDFQGPGES
Take B1: the binding result was “binds”.

B2: GFP-V5-IRF3 (protein, UniProt Q14653 1-427)
chain: MGTPKPRILPWLVSQLDLGQLEGVAWVNKSRTRFRIPWKHGLRQDAQQEDFGIFQAWAEATGAYVPGRDKPDLPTWKRNFRSALNRKEGLRLAEDRSKDPHDPHKIYEFVNSGVGDFSQPDTSPDTNGGGSTSDTQEDILDELLGNMVLAPLPDPGPPSLAVAPEPCPQPLRSPSLDNPTPFPNLGPSENPLKRLLVPGEEWEFEVTAFYRGRQVFQQTISCPEGLRLVGSEVGDRTLPGWPVTLPDPGMSLTDRGVMSYVRHVLSCLGGGLALWRAGQWLWAQRLGHCHTYWAVSEELLPNSGHGPDGEVPKDKEGGVFDLGPFIVDLITFTEGSGRSPRYALWFCVGESWPQDQPWTKRLVMVKVVPTCLRALVEMARVGGASSLENTVDLHISNSHPLSLTSDQYKAYLQDLVEGMDFQGPGES
With B2, the binding result is “binds”.
